Reference: PMC11784234
These are yes or no findings as the source states them, for the method shown. Binding seen in cells or lysates may run through a third protein. Some entries that bind do so weakly or less than the wild type.

Molecular target: human STAT2, HA-tagged (HA-STAT2-Myc) (human), P52630
Assay: co-IP; HEK293T cells transfected; lysate incubated with anti-HA Affinity Gel at 4°C overnight, immunoblot
Details: remark: other sources report otherwise

B1: IRF9, Q00978 1-393 (protein)
chain: MASGRARCTRKLRNWVVEQVESGQFPGVCWDDTAKTMFRIPWKHAGKQDFREDQDAAFFKAWAIFKGKYKEGDTGGPAVWKTRLRCALNKSSEFKEVPERGRMDVAEPYKVYQLLPPGIVSGQPGTQKVPSKRQHSSVSSERKEEEDAMQNCTLSPSVLQDSLNNEEEGASGGAVHSDIGSSSSSSSPEPQEVTDTTEAPFQGDQRSLEFLLPPEPDYSLLLTFIYNGRVVGEAQVQSLDCRLVAEPSGSESSMEQVLFPKPGPLEPTQRLLSQLERGILVASNPRGLFVQRLCPIPISWNAPQAPPGPGPHLLPSNECVELFRTAYFCRDLVRYFQGLGPPPKFQVTLNFWEESHGSSHTPQNLITVKMEQAFARYLLEQTPEQQAAILSLV
binding: binds
